No constants are given. Whether binding was seen depends on the method and setting. Binding seen in cells or lysates may run through a third protein. A yes stands for co-enrichment or nearness to the bait. Other partners may have been found. For some assays here: No binding means not detected with the bait.

Chains of the proteins cited; added tags and fusions are not shown. Residues count along the entry.
ClpC1^NTD (ClpC1 N-terminal domain alone, aa 1 to 147, C-terminal 3xFLAG) (A0R574, residues 1-147): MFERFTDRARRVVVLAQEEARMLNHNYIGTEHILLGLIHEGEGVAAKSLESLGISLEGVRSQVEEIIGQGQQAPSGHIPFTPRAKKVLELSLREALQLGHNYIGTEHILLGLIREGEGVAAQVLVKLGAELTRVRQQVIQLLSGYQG
ClpC1^CORE (ClpC1 lacking the NTD, aa 158 to 848, C-terminal 3xFLAG) (A0R574, residues 158-848): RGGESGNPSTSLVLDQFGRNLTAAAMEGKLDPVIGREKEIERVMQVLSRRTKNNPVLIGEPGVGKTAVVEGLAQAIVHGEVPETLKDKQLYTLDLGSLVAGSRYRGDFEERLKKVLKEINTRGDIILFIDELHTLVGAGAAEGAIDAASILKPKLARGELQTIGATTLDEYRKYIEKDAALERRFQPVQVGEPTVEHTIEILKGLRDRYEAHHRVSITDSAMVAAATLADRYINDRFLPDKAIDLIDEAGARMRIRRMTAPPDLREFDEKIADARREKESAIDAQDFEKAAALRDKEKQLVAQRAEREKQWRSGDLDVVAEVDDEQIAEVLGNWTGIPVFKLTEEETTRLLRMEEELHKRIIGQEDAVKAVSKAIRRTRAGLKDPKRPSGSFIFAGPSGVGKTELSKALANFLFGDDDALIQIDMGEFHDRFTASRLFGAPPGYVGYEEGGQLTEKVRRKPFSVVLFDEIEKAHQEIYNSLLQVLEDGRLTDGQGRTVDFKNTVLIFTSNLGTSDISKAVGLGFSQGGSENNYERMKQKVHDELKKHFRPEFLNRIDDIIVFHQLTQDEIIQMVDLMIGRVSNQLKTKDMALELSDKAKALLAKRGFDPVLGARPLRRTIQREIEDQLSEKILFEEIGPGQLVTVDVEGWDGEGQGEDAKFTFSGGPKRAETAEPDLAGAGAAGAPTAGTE

For seven molecules, binding results are on record in publication PMC10433963.

To fix the notation:
B1: ATP synthase subunit b-delta (protein, UniProt A0R203 1-445)
chain: MSIFIGQLIGFAVIAFIIVKWVVPPVRTLMRNQQEAVRAALAESAEAAKKLADADAMHAKALADAKAESEKVTEEAKQDSERIAAQLSEQAGSEAERIKAQGAQQIQLMRQQLIRQLRTGLGAEAVNKAAEIVRAHVADPQAQSATVDRFLSELEQMAPSSVVIDTAATSRLRAASRQSLAALVEKFDSVAGGLDADGLTNLADELASVAKLLLSETALNKHLAEPTDDSAPKVRLLERLLSDKVSATTLDLLRTAVSNRWSTESNLIDAVEHTARLALLKRAEIAGEVDEVEEQLFRFGRVLDAEPRLSALLSDYTTPAEGRVALLDKALTGRPGVNQTAAALLSQTVGLLRGERADEAVIDLAELAVSRRGEVVAHVSAAAELSDAQRTRLTEVLSRIYGRPVSVQLHVDPELLGGLSITVGDEVIDGSIASRLAAAQTGLPD
B2: Magnesium chelatase (protein, UniProt A0R3L1 1-461)
chain: MVSQPKDLPRTVGELRASGHRERGVKAEIRENLLAALAERRDVWPGILGFEDTVIPQLERALIAGHDVVLLGERGQGKTRLLRALTGLLDEWTPVIAGSELGEHPYSPITPESIRRAADSGDDLPVEWRHRSERYTEKLATPDTSVADLVGDIDPIKVAEGRSLGDPETIAYGLIPRAHRGIVAVNELPDLAERIQVAMLNVMEERDIQVRGYTLRLPLDVLVVASANPEDYTNRGRIITPLKDRFGAEIRTHYPLELEAEVGVIRQEAELAAEVPEYLLAVLARFARNLRESNSIDQRSGVSARFAIAAAETVAASARHRAAILGEDDPVARVVDLGTVIDVLRGKLEFETGEEGREQAVLEHLLRRATADTAQRLLGGIDVGPLVAAIEEGSPVTTGERVSAKDVVAALPDLPAIDAIAHRLNAVSVGQRAAAIELALEALYLAKRIDKVSGEGETVYG
B3: 2-Hydroxy-6-oxo-6-phenylhexa-2,4-dienoate hydrolase (EC 3.7.1.−) (protein, UniProt A0QWD3 1-286)
chain: MQAIDYQDSLREVTTDAGVLRFHEAGDGPPLLLLHGSGPGVTGWRNYRGNLGFFAQHFRCLVLEFPGFGVSDDFGGHPMLDAQRAAVVFADALGLDRVDIIGNSMGGGVGINFAINHPDRVRHLVTIGGIGTNIFSPGPSEGIRLLQEFTEDPTRARLVDWLNSMVYDPALVTDELIEERWALATDPETLESARRMYGKAAFAAMMEMMRNADFPLPWSIMHKVKAPTLLTWGRDDRVSPLDMALVPMRTIPNAELHVFPNCGHWVMIEAKSAFERTVLSFLTQDN
B4: Aspartate aminotransferase (protein, UniProt A0QQA8 1-424)
chain: MERVTTHQLPWQSTGEHRKPRTFTQSTKLQDVLYEIRGPVHEHASRLEAEGHRILKLNIGNPAPFGFEAPDVIMRDIIQALPTAQGYSDSKGILSARRAVFTRYELVEGFPKFDVDDVYLGNGVSELITMTLQALLDNGDQVLIPAPDYPLWTASTSLAGGTPVHYLCDETQGWNPDVADIESKITERTKAIVVINPNNPTGAVYSRETLEQIVDLARKHQLLLLADEIYDKILYDDAKHISLATLAPDLLCLTFNGLSKAYRVAGYRSGWLVITGPKEHATSFIEGISLLANMRLCPNVPAQHAIQVALGGHQSIDALVLPGGRLLEQRDVAWEKLNEIPGVSCVKPRGALYAFPRLDPEVYDIHDDEQLVLDLLLQEKILLTQGTGFNWPTPDHLRIVTLPWARDLASAIERLGNFLASYRQ
B5: PhoH family protein (protein, UniProt A0R0T1 1-348)
chain: MTPRDTNADSTATAQESVRSSITVPPDIIVGLLGSADENLRAIEKVLTSDVHVRGNEVTFSGEPADVALAERVVAELVAVASSGQAVTPETVRHSVAILTGAGDESPAEVLTLDILSRRGKTIRPKTLNQKHYVDAIDAHTIVFGIGPAGTGKTYLAMAKAVNALQTKQVNRIILTRPAVEAGERLGFLPGTLSEKIDPYLRPLYDALHDMMDTELIPKLMSAGVIEVAPLAYMRGRTLNDAFIILDEAQNTTAEQMKMFLTRLGFGSKIVVTGDVTQVDLPGGATSGLRAAMQILDNIDDIHFAELTSADVVRHRLVSDIVDAYARHEEPAMLNRAQRRSSNGRPRR
B6: Chaperone protein DnaJ1 (protein, UniProt A0QQD0 1-390)
chain: MAQREWVEKDFYKELGVSSDASADEIKKAYRKLAAELHPDRNSDPGAAERFKAVSEANSVLSDPAKRKEYDETRRLFAGGFGRRFNQGGGGFGGGFGSDGVEFNLGDLFDAAGQTGGANIGDLFGGLFGRGPQQRPSRPRRGNDLETETELSFLEATKGVAMPLRLTSPAPCTNCHGSGARPGTSPKVCPSCNGSGVISRNQGAFGFSEPCTECRGSGSIIEHPCQECRGTGVTTRTRTINVRIPPGVEDGQRIRLAGQGEAGLRGAPSGDLYVTVHVRPDKVFGRDGDDLTVTVPVSFHELALGTTLSVPTLDGKVGVRVPKGTSDGRILRVRGRGVPKRSGGHGDLLVTVKVAVPPNLEGEAAEALEAYAKAERASGFDPRAGWAGNV
B7: Thioredoxin reductase (protein, UniProt A0QSL0 1-552)
chain: MILSVDDDPAVSRAVARDLRRHYGERYRIVRAESGPDALETLHELKLRGDTVAVFVADYRMPQMSGIEFLESAMDLYPMARRVLLTAYADTNAAIAAINVVDLDHYLLKPWDPPEEKLYPVIDGLLEAWHAAGDRAIPYTKVIGHQWSPRSWEVRQFLARNQHTYRAFNADEPKGRQLLEAAGLDGMQLPVVITEGGTTLVEPTDAELADMLGLSTAPSLTMYDLAVIGGGPAGLAAAVYGASEGLKTVLIEGTTTGGQASRSSRIENYLGFPTGISGAELATSARRQAERFGAEVITTREAVKLEVAGSARTITFADGDTIGARAVILATGVDYRQLPVPGCWDDPDNPVNFIGRGVYYGASVSDAAECCDEDVYIVGGANSAGQAAMFMARTARSVTLLVRGPSLEASMSYYLIQQIEDTPNIHVRTCTEVVKAIGEDDHLVGLVLENKRTGEQEEVRSSRLCCFIGATPRTEWLDGVVARDEHGFILAGPDLRDVCGWTLERPPHHLETSVPGVFVAGDVRAESAKRVAAAVGEGSMAVMFVHRYLAES

The target in the first assay is ClpC1^CORE (ClpC1 lacking the NTD, aa 158 to 848, C-terminal 3xFLAG) (M. smegmatis) (UniProt A0R574). Nature of the assay: affinity purification with mass spectrometry; 3xFLAG-tagged ClpC1 construct expressed in M. smegmatis MC2155; lysate incubated with anti-FLAG M2 beads 1 h at 4°C in 25 mM HEPES, 10 mM MgCl2, 200 mM KCl, 0.1 mM EDTA, 10 mM ATP, pH 7.5; SDS-PAGE, in-gel trypsin digestion, LC-MS/MS; proteins seen in at least two of three biological replicates; proteins of the empty vector control ignored.
In the case of B1, the binding entry is listed as “binds”.

As for B2, the binding entry is “binds”.

In the case of B3, the binding entry was “binds”.

In the case of B4, the binding entry is reported as “binds”.

Consider B5, for which the binding entry was “binds”.

For the molecule B6, the binding result is “binds”.

On to B7, for which the binding result is “binds”.

Another assay addresses ClpC1^NTD (ClpC1 N-terminal domain alone, aa 1 to 147, C-terminal 3xFLAG) (M. smegmatis) (UniProt A0R574). Described as above.
For the molecule B1, the binding entry is given as “binds”.

As for B2, the binding entry is listed as “binds”.

For B3, the binding entry was “no binding”.

For the molecule B4, the binding result is recorded as “binds”.

B5: the binding result is “binds”.

With B6, the binding result is listed as “binds”.

Take B7: the binding entry is “binds”.
